Reference: article PMC5148066
No constants are given. Whether binding was seen depends on the method and setting. For some assays here: A result given as binding can be weak or reduced; the word gives no strength.

Tests used:
[1] = target: Bovine papular stomatitis virus chemokine-binding protein (Bovine papular stomatitis virus (strain V660 named for the sequence analysis)); experiment: SPR; BPSV-CBP immobilised on a CM5 chip (~500 RU) by amine coupling; serial dilutions of mouse chemokines in HBS-EP (20 mM HEPES, 150 mM NaCl, 3.4 mM EDTA, 0.005% Polysorbate 20, pH 7.4) run in triplicate, 3 min association, 10 min dissociation; 25°C, Biacore X100; global fit with a 1:1 binding model; both purified
[2] = target: Bovine papular stomatitis virus chemokine-binding protein (Bovine papular stomatitis virus); experiment: SPR; BPSV-CBP immobilised on a CM5 chip (~500 RU, amine coupling, 10 mM sodium acetate pH 4.5); serial dilutions of mouse chemokines in HBS-EP pH 7.4 flowed in triplicate, 3 min association, 10 min dissociation, 25°C, Biacore X100; global fit, 1:1 binding model; both purified

B1: mouse CCL3 (ligand, UniProt P10855 24-92)
chain: APYGADTPTACCFSYSRKIPRQFIVDYFETSSLCSQPGVIFLTKRNRQICADSKETWVQEYITDLELNA
B1 was tested, and the binding [1] was “binds”.

B2: mouse CX3CL1 (ligand, UniProt O35188 25-336)
chain: QHLGMTKCEIMCDKMTSRIPVALLIRYQLNQESCGKRAIVLETTQHRRFCADPKEKWVQDAMKHLDHQAAALTKNGGKFEKRVDNVTPGITLATRGLSPSALTKPESATLEDLALELTTISQEARGTMGTSQEPPAAVTGSSLSTSEAQDAGLTAKPQSIGSFEAADISTTVWPSPAVYQSGSSSWAEEKATESPSTTAPSPQVSTTSPSTPEENVGSEGQPPWVQGQDLSPEKSLGSEEINPVHTDNFQERGPGNTVHPSVAPISSEETPSPELVASGSQAPKIEEPIHATADPQKLSVLITPVPDTQAAT
B2 was tested, and the binding [1] was “no binding” and the binding [2] was “no binding”.

B3: mouse CCL22 (ligand, UniProt O88430 25-92)
chain: GPYGANVEDSICCQDYIRHPLPSRLVKEFFWTSKSCRKPGVVLITVKNRDICADPRQVWVKKLLHKLS
With B3 the binding [1] was “no binding”.

B4: mouse CXCL10 (ligand, UniProt P17515 22-98)
chain: IPLARTVRCNCIHIDDGPVRMRAIGKLEIIPASLSCPRVEIIATMKKNDEQRCLNPESKTIKNLMKAFSQKRSKRAP
In the case of B4, the binding [1] is reported as “no binding”.
